Source: PubChem BioAssay AID1259415 (National Center for Advancing Translational Sciences (NCATS), 2018)
In all, about 410,000 compounds went through this assay and about 18,000 (4.4%) were called active. Inconclusive results, whose numbers are uncertain, are shown with a selection of clear calls. Cut-off read from the data, not from the text of the source: active = activity change below about -60%; inconclusive = no clear call, values can overlap the other calls; inactive = above about -39%.

assay: qHTS Assay for inhibitors of the human cytomegalovirus (HCMV); conditions: HFF cells, HCMV-luciferase reporter, 72 h; at 57.5 µM; hits give low values
Procedure, shortened: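 Human foreskin fibroblasts infected with luciferase-reporter HCMV at MOI 1 PFU/cell, compounds at two doses. Luciferase measured 72 h post infection; normalized to buffer-only basal and Salinomycin (10uM) controls.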
% is set by controls: 0 for no effect and ±100 for the full control effect.

| Compound | activity change, negative = inhibition |
| --- | --- |
| O=[N+]([O-])c1ccc(Oc2ccc(S(=O)(=O)N3CCOCC3)cc2)cc1 | inconclusive: -59% |
| CN(C)CC(=O)N[C@@H]1CC[C@@H](CCNS(=O)(=O)c2ccccc2)O[C@@H]1CO | inconclusive: -48.7% |
| Cc1nc(NC(C)c2ccccc2)sc1C(=O)Nc1ccccc1 (stereo unspecified) | inconclusive: -53% |
| CCC(CC)=NNC(=O)c1ccccc1OCc1ccc(F)cc1 | inconclusive: -52.6% |
| O=C(Cn1ccccc1=S)c1ccc(Cl)c(Cl)c1 | inconclusive: -47.2% |
| CSc1nc2sc3c(c2c(=O)[nH]1)CCC(C)C3 (stereo unspecified) | inconclusive: -46.1% |
| CCOc1ccc(NS(=O)(=O)c2ccc(C(=O)N3CCCC(C)C3)cc2)cc1 (stereo unspecified) | active: -63.4% |
| CCn1nccc1C(=O)Nc1ccc(C(=O)OC(C)C)cc1 | inactive: -11.6% |
| O=C(Nc1ccc(N2CCN(C(=O)c3ccccc3)CC2)cc1)c1ccc2c(c1)OCCO2 | active: -69.1% |
| CN(C)C/C=C(/c1ccc(Br)cc1)c1cccnc1 | inactive: -1.73% |
| O=C(O)CCN(Cc1ccccc1)S(=O)(=O)c1c(Cl)cccc1Cl | inconclusive: -47.1% |
| CC(C)(CO)C(O)C(=O)NCCCO (stereo unspecified) | inconclusive: -45.3% |
| Cn1c(=O)c2cc(NC(=O)Cc3cccnc3)ccc2n1-c1ccc2ccccc2c1 | inconclusive: -46% |
| Cc1ccc(Cl)cc1Nc1nn2c(=O)c3ccc(C(=O)NCc4cccs4)cc3nc2s1 | active: -98.3% |
| C=CCNc1nnc(Sc2ncccc2[N+](=O)[O-])s1 | inconclusive: -60% |
| Cc1ccc(Cl)cc1N1CCN(S(=O)(=O)c2ccc3[nH]c4c(c3c2)CCCC4)CC1 | inactive: -8.46% |
| Cc1cccc(N2CCN(C(=O)C3CCN(S(=O)(=O)c4cn(C)cn4)CC3)CC2)c1C | inconclusive: -48.9% |
| CCCCN(CCCC)CCNC(=O)CN1C(=O)CSc2ccc(S(=O)(=O)N3CCCCC3)cc21 | inconclusive: -58.9% |
| CCN(CC)C(=O)c1c2c(nc3ccccc13)-c1ccccc1CC2 | inactive: 7.76% |

2 entries from above, with each value named.
Cn1c(=O)c2cc(NC(=O)Cc3cccnc3)ccc2n1-c1ccc2ccccc2c1
  activity change, negative = inhibition: inconclusive: -46%
Cc1ccc(Cl)cc1Nc1nn2c(=O)c3ccc(C(=O)NCc4cccs4)cc3nc2s1
  activity change, negative = inhibition: active: -98.3%

Further entries.

| Compound | activity change, negative = inhibition |
| --- | --- |
| COc1ccc(CCNC(=O)c2cc(-c3ccccc3)c(N3CCOCC3)s2)cc1OC | inconclusive: -50.4% |
| O=C(Cn1cnc2c(nnn2-c2ccccc2)c1=O)NCCc1ccccc1 | inconclusive: -53.4% |
| CCCCOc1ccc(/C=C2/Sc3ccccc3C2=O)cc1 | inactive: 31.5% |
| CCCNC(=O)c1cc(C2CCCCN2C(=O)c2cc(F)ccc2C)on1 (stereo unspecified) | inconclusive: -45.8% |
| O=C(Cc1ccsc1)NNC(=O)c1ccccc1O | active: -61.4% |
| CCCCn1cnc2c(Sc3c([N+](=O)[O-])ncn3C)nc(N)nc21 | inconclusive: -43.4% |
| COc1c(S(=O)(=O)N2CCCCC2)ccc2c(S(=O)(=O)N3CCCCC3)cccc12 | active: -85.5% |
| COc1ccc(-c2c(-c3ccc(OCC(=O)NN)cc3O)n[nH]c2C)cc1 | inactive: 18.4% |
| CCc1nc2c(sc3nc4c(cc32)COC(C)(C)C4)c(=O)n1Cc1ccco1 | inconclusive: -51% |
| CC1=C(C(=O)Nc2ccccc2C(=O)NC2CCCCC2)SCCO1 | inactive: -16.1% |
| CC[n+]1c(/C=C2\C=C(C)CC(C)(C)C2)sc2ccccc21 | inactive: -18.5% |
| CCOC(=O)[C@]12CCCC=C1N(Cc1ccc3c(c1)OCO3)C(=O)[C@H](CC(=O)NCCCCc1ccccc1)C2 | inconclusive: -55.9% |
| COc1ccc(-c2csc(N3CCN(C(=O)c4ccco4)CC3)n2)cc1 | inconclusive: -51.7% |
| Cc1cc(C)cc(-n2ccnc2SCC(=O)Nc2ccc3c(c2)OCO3)c1 | inconclusive: -45.3% |
| Nc1nc(NCc2ccco2)nc(N2CCCCCC2)c1[N+](=O)[O-] | inconclusive: -49.7% |
| Cc1nn(-c2ccccc2)c(C)c1NC(=O)COC(=O)CCc1ccccc1 | inactive: -3.28% |
| Cc1cc(N2CCN(C)CC2)nc2ccc(NC(=S)NCCN3CCc4ccccc4C3)cc12 | inconclusive: -49.1% |
| CCN(Cc1ccncc1)Cc1nc(Cc2ccccc2Cl)no1 | active: -60.7% |
| Cc1csc(SCC(=O)Nc2cccc(S(=O)(=O)N3CCOCC3)c2)n1 | inactive: 109% |

| Compound | activity change, negative = inhibition |
| --- | --- |
| O=C(NC(c1ccc(Cl)cc1)c1cc(Cl)c2cccnc2c1O)c1cccnc1 (stereo unspecified) | active: -101% |
| Cc1ccc(-c2cc(C(=O)NC3=NCCS3)c3ccccc3n2)cc1C | inactive: 78.4% |
| CCN1C(=O)[C@@H]2[C@H](C1=O)[C@@H]1C(=O)Nc3ccccc3C(=O)N1[C@@H]2c1ccc(Br)cc1 | inactive: -21.5% |
| Nn1c(Cc2ccccc2F)n[nH]c1=S | inactive: 60.7% |
| COc1ccc(NC(=O)Cn2c(-c3ccccc3)cc(C(C)=O)c2C)c(OC)c1 | inconclusive: -56.6% |
| NCCCNc1ccc([N+](=O)[O-])cc1C(F)(F)F | inconclusive: -50.4% |
| c1ccc(-c2nnc(SCc3nc4ccccc4[nH]3)n2Cc2ccco2)nc1 | active: -64.2% |
| O=c1/c(=C\c2cccc(O)c2)sc2nc(-c3ccccc3)c(-c3ccccc3)n12 | inconclusive: -57.2% |
| Cc1cc(C)cc(OCC(=O)Nc2ccc(Cl)c(-c3nc4ncccc4o3)c2)c1 | inconclusive: -40.2% |
| CCOc1ccc2[nH]c3c(N4CCN(c5ccccn5)CC4)ncnc3c2c1 | inconclusive: -58.3% |
| Cc1ccccc1-n1ncc2c(SCC(=O)NC3CCCC3)ncnc21 | active: -72.5% |
| CCN(CC)c1ccc(N)cc1S(=O)(=O)Nc1ccccc1OC | inconclusive: -45% |
| COc1ccc(Oc2ccc3c(C(F)(F)F)cc(C(F)(F)F)nc3n2)cc1 | inconclusive: -56.9% |
| N#C/C(=C\c1ccccc1)C(=O)Nc1sc2c(c1C(N)=O)CCC2 | inactive: 13% |
| COc1ccc(-c2csc(NC(CO)c3nc4ccccc4n3Cc3ccc(C)cc3)n2)cc1 (stereo unspecified) | inactive: 4.47% |
| COc1cc(/C=N/NC(=O)c2ccoc2C)ccc1O | inactive: 39.9% |
| COc1ccc(NC(=O)Cc2c(F)c(F)c(F)c(F)c2F)cc1OC | inconclusive: 0% |
| CC(=O)Nc1ccc(S(=O)(=O)N2CCN(C(=O)c3ncoc3-c3cccc(C)c3)CC2)cc1 | inconclusive: -55.6% |
